# At least one peptide structure holds a part that was inferred or is arguable (an end, a ring closure or a residue).
# Chains of the proteins cited; added tags and fusions are not shown. Lines headed by an entry give the natural chain unless they say otherwise; changes in a name come on top. Residues count along the entry.
# UniProt P00004: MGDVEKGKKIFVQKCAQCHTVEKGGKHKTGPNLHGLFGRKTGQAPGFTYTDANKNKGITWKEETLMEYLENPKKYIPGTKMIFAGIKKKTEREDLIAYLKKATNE
# UniProt P01501, 44-69 limits assumed: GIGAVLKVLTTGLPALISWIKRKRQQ
# Experiments:
# Horse Cytochrome c [1] = target: T1, Horse Cytochrome c (Equus caballus, UniProt P00004); test: Micro calorimetry titration of Cytochrome c; type: binding
# Excerpt: FIG. 9 illustrates a micro calorimetry titration of Cytochrome c with a preferred embodiment of the present invention.
# Horse Cytochrome c is an electron-transferring protein with a heme prosthetic group. The size of this protein is 12,384 Dalton and the surface is highly positively charged with lysine and arginine residues. For the X-ray crystal structure of Cytochrome c, see: Bushnell, G. W.; Louie, G. D.; Brayer, G. D. J. Mol. Biol. 1990, 214, 585. NMR titration of Cytochrome c with a preferred embodiment of the invention, designated 1 below, was performed under the condition described in FIG. 8 and two of the hyperfine region protons from heme in Cytochrome c, heme 8-CH3 and heme 3-CH3, were followed. […] The direction and the size of shifts are about the same as those of the titration between Cytochrome c and Cytochrome c peroxydase and peak broadening was also observed in the peroxydase titration. For NMR titration of cytochrome c and cytochrome-c peroxydase, see: Satterlee, J. D.; Moench, S. J.; Erman, J. E. Biochemica et Boiphysica Acta 1987, 912, 87-97. FIG. 8 is consistent with 1:1 binding. [drawing 1] Micro calorimetry titration of Cytochrome c with 1 was also performed (see FIG. 9). The association constant was calculated as 136000M^-1 therefore ΔG=-7.0 kcal/mol. As the enthalpy of the binding event is simulated as -5.6 kcal/mol, the entropy portion should be -1.4 kcal/mol. Therefore this binding is mainly enthalpy driven, presumably due to electrostatic interaction between lysine residues of Cytochrome c and aspartate residues of 1.
# Horse Cytochrome c [2] = target: T1, Horse Cytochrome c; test: NMR titration of Cytochrome c; type: binding; conditions: 3.0 mM Cytochrome c
# melittin [3] = target: T2, melittin (Apis mellifera, UniProt P01501); type: binding, bee
# melittin [4] = target: T2, melittin; type: binding, bee; remark: listed apart in the source
smiles,measurement,setting,value
"CCCCOc1c2cc(C(=O)Nc3cc4cc(c3)C(=O)NCC(=O)N[C@@H](CC(=O)O)C(=O)NCC(=O)N[C@@H](CC(=O)O)C(=O)NC4)cc1Cc1cc(C(=O)Nc3cc4cc(c3)C(=O)NCC(=O)N[C@@H](CC(=O)O)C(=O)NCC(=O)N[C@@H](CC(=O)O)C(=O)NC4)cc(c1OCCCC)Cc1cc(C(=O)Nc3cc4cc(c3)C(=O)NCC(=O)N[C@@H](CC(=O)O)C(=O)NCC(=O)N[C@@H](CC(=O)O)C(=O)NC4)cc(c1OCCCC)Cc1cc(C(=O)Nc3cc4cc(c3)C(=O)NCC(=O)N[C@@H](CC(=O)O)C(=O)NCC(=O)N[C@@H](CC(=O)O)C(=O)NC4)cc(c1OCCCC)C2 [compound 1, Calix[4]arenetetracyclicpeptide1]",ΔG,Horse Cytochrome c [1]; from the association constant,-7.0 kcal/mol
same,entropy portion,Horse Cytochrome c [1]; from ΔG and enthalpy,-1.4 kcal/mol
same,enthalpy of the binding event,Horse Cytochrome c [1]; simulated from micro calorimetry titration,-5.6 kcal/mol
same,shift of hyperfine region heme protons (heme 8-CH3 and heme 3-CH3) of Cytochrome c upon addition,Horse Cytochrome c [2],8-CH3 moved downfield and 3-CH3 moved upfield and both peaks became broad
same,effect on melittin fluorescence,melittin [3],original melittin emission at 344 nm decreased and new peak at 452 nm appeared
same,stoichiometry,melittin [4],either 1:1 or 1:2

# From patent publication US5770380A (priority 1996, dated 1998)
